This experiment concerns the target T1, P2-beta peptide (biotinylated).
T1 sequence (peptide, biotin (position not stated)): GSLEEIIAEGQKC
Put plainly: SEC; 2 uM biotinylated peptide incubated 30 min at RT with 4 uM purified Ssb1 in Ssb buffer (30 mM HEPES KOH pH 7.4, 50 mM KAc, 5 mM MgCl2, 1 mM beta-mercaptoethanol), then apyrase for 1 h; Superose 12; fractions dot-blotted, peptide detected with StrepTactin-HRP and Ssb with antibody; both …. Background: In gel filtration, larger molecules generally elute earlier.

Amino acid sequences for entries named in this document (tags omitted).
UniProt P11484: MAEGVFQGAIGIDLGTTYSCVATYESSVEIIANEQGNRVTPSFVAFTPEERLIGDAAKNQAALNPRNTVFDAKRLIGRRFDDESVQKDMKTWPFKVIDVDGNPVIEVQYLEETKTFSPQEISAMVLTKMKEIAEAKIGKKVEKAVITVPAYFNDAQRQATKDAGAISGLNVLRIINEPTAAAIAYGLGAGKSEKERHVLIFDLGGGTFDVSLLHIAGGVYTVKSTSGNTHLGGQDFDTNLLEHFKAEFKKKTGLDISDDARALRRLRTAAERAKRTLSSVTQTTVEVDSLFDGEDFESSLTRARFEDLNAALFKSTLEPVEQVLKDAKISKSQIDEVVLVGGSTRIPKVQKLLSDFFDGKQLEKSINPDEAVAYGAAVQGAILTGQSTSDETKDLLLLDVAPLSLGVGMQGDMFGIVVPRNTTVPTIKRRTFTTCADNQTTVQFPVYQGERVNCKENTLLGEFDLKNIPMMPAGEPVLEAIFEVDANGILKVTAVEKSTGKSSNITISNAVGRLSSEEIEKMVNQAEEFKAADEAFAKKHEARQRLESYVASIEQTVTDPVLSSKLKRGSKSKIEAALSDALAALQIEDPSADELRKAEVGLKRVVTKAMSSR

No constants are given. Whether binding was seen depends on the method and setting.

Consider one substance from publication PMC5150220.

As to “Ssb1 (wild type, recombinant) (from UniProt P11484 1-613)”, the binding result is on record as “no binding (tested: 2 uM peptide, 4 uM Ssb1)”.
